# Source: PubChem BioAssay AID2685 (National Center for Advancing Translational Sciences (NCATS), 2010)
# “And” between values parts separate entries of the source, which are not always exact repeats. Equal entries are not always repeated. The list shows a part of the results. Shown are side measurements of this screen, not its main read-out; they come without a call. Most of these compounds were active or inconclusive in the main read-out, so they are no random draw. Words in brackets tell the shape of the fitted curve; partial curves, single points and poor fits give uncertain potencies.
# Experiment: qHTS Assay for Lipid Storage Modulators in Drosophila S3 Cells;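 on cell number change: cells counted by Cell Tracker Red CMTPX staining in the red channel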
# Conditions: BODIPY lipid droplet fluorescence, 18-24 h; for cell number change: measured here: cell count max response, cells fed with added oleic acid
# Procedure, shortened: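 Drosophila S3 cells loaded with oleic acid (400 uM, as added) and compounds at several concentrations; lipid droplets imaged by 488-nm laser-scanning cytometry, 500–530 nm intensity and object ratio to cell channel. Percent activity normalized to 20 uM Triacsin C.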
# [1] = measured here: cell number channel AC50, cells fed with added oleic acid
# [2] = measured here: lipid fluorescence (Fed channel) AC50, cells fed with added oleic acid
SMILES,cell number change,AC50 [1],AC50 [2]
COc1ccc(OCc2nc(-c3ccc(F)c(F)c3)cs2)cc1,-44.9%,"29.1 µM [falling, single point]","29.1 µM [falling, single point]"
COc1ccccc1Nc1nc(N)nc(CSc2nccc(C)n2)n1,16.6%,–,"0.461 µM [rising, full curve]"
CCOC(=O)/C(=C/c1c2ccccc2cc2ccccc12)NC(=O)c1ccccc1,-15.1%,–,"16.4 µM [falling, partial curve]"
Cc1ccc(/C=N/N2CCN(C3c4ccccc4-c4ccccc43)CC2)o1,15.5%,–,–
CC1CCc2nc3ccc(S(=O)(=O)N4CCC(C(=O)N5CCCCCC5)CC4)cc3c(C(=O)O)c2C1 (centres undefined),-7.83%,"0.58 µM [falling, partial curve]","0.291 µM [falling, full curve, poor fit]"
CN(C)S(=O)(=O)c1cc(C(=O)Nc2ccn(C)n2)c(Cl)cc1Cl,9.35%,–,"29.1 µM [rising, single point]"
CCCCNC(=O)Nc1cc(C(F)(F)F)c[nH]c1=O,13%,–,–
CCN(C(=O)c1ccc(Cl)cc1[N+](=O)[O-])c1ccccc1C,10.3%,–,"0.13 µM [rising, single point]"
S=C(NCc1ccco1)N/N=C/c1ccccc1Cl,17.1%,–,"6.51 µM [rising, single point]"
COc1cc(NS(=O)(=O)c2ccc(NC(=O)NC3CCCCC3)cc2)nc(OC)n1,-23.1%,–,"29.1 µM [falling, partial curve]"
COc1ccc(/C=C(\C#N)C(=O)NCCCn2ccnc2)cc1,7.19%,–,–
COc1ccc(CN(C(=S)Nc2ccccc2)C2CC(=O)N(c3ccc(Cl)cc3)C2=O)cc1 (centres undefined),-25.6%,"0.092 µM [falling, full curve]",–
O=C(COC(=O)c1cccc2ccccc12)NCC1CCCO1 (centres undefined),–,–,"29.1 µM [falling, single point]"
CC12CC(c3ccccc3O1)N(C(=O)c1ccco1)C(=O)N2c1ccccc1 (centres undefined),–,"1.16 µM [falling, full curve]",–
COc1ccccc1N1CCN(C(=O)c2n[nH]c3ccccc23)CC1,39.2%,"0.00461 µM [rising, full curve]",–
CC(=O)c1ccccc1NC(=O)Cn1c(=O)cnc2ccccc21,-27.2%,–,"0.164 µM [rising, full curve, poor fit]"
CC(=O)Nc1cccc(N/C=C(\C=O)c2nc3ccccc3o2)c1,-0.727%,–,"29.1 µM [falling, single point]"
COC(=O)C1=C(C)N(C)C(C)=C(C(=O)OC)C1c1ccccn1,10.6%,–,"5.17 µM [falling, single point]"
Brc1ccc(-c2noc(COc3ccc4c(c3)CCC4)n2)o1,–,–,"14.6 µM [rising, partial curve]"
O=C(NCc1ccco1)C1CCN(S(=O)(=O)N2CCOCC2)CC1,134%,–,–

SMILES,cell number change,AC50 [1],AC50 [2]
CC(C)(C)NC(=O)C(c1ccncc1)N(CC1CCCO1)C(=O)Cn1nnc(-c2ccc(F)cc2)n1 (centres undefined),-25.9%,–,"29.1 µM [falling, single point]"
CCN(Cc1ccccc1)C(=O)c1cccc(S(=O)(=O)N2CCN(Cc3ccccc3)CC2)c1,45.2%,"11.6 µM [rising, partial curve]",–
CCCCN(CC)CCNC(=O)C1CCN(S(=O)(=O)c2cccc3nsnc23)CC1,-10.3%,"0.00461 µM [falling, full curve, poor fit]","0.58 µM [falling, single point]"
O=C(COc1ccccc1O)NCCN1CCOCC1,11.7%,–,–
COc1ccccc1NC(=O)c1ccc(-n2cccn2)c([N+](=O)[O-])c1,4.72%,–,–
O=C(COc1ccc([N+](=O)[O-])cc1)Nc1cccc(C(=O)Nc2ccccc2C(=O)O)c1,47%,–,"29.1 µM [rising, single point]"
COc1ccc(Cc2nn3c(Cn4nnc5ccccc54)nnc3s2)cc1,–,–,"3.26 µM [rising, partial curve]"
COC(=O)CN1C(=O)CSc2ncccc21,-153%,"23.1 µM [falling, partial curve]","23.1 µM [falling, partial curve]"
O=C(/C=C/c1ccccc1[N+](=O)[O-])NCCCN1CCCC1=O,12.6%,"6.51 µM [rising, partial curve, poor fit]","0.00651 µM [rising, full curve, poor fit]"
NC(=O)CC(NC(=O)c1ccccc1)c1ccc(NC2CCCC2)c([N+](=O)[O-])c1 (centres undefined),-7.89%,–,"36.6 µM [falling, partial curve, poor fit]"
Cc1ccc(OCc2nnc(SCC(=O)Nc3ccc4c(c3)OCCO4)n2Cc2ccco2)cc1,-19.8%,–,"29.1 µM [falling, single point]"
O=C(c1ccc(CS(=O)Cc2ccc(Cl)cc2)o1)N1CCN(c2ccccn2)CC1 (centres undefined),-30.9%,–,–
CCOc1ccc(NC(=S)N(CCCN2CCOCC2)Cc2cn(C)c3ccccc23)cc1,12%,–,"0.082 µM [rising, full curve, poor fit]"
Cc1ccc2c(c1)N(CC(=O)NCC1CCCO1)C(=O)CO2 (centres undefined),10.9%,–,–
CCCNC(=O)COC(=O)c1c2c(nc3ccccc13)CCC2,-33.3%,–,"5.17 µM [rising, single point]"
O=C(O)c1ccc(F)c(S(=O)(=O)Nc2ccccc2)c1,-12.5%,–,"14.6 µM [falling, single point]"
CC1=C(C(=O)OCC2CCCO2)C(c2cccc(C(F)(F)F)c2)C2=C(CC(c3ccco3)CC2=O)N1 (centres undefined),20.3%,–,"29.1 µM [rising, single point]"
O=C(Nc1cccc([N+](=O)[O-])c1)c1ccc(-c2ccccc2)cc1,-37.1%,"32.6 µM [falling, partial curve, poor fit]","16.4 µM [rising, partial curve]"
CCc1ccc2[nH]c(C(=O)Nc3ccc(F)cc3Br)cc2c1,-13.9%,"3.66 µM [falling, partial curve]",–

SMILES,cell number change,AC50 [1],AC50 [2]
O=C(Oc1nsnc1N1CCOCC1)c1ccccc1,-22.6%,"2.59 µM [falling, single point]","4.61 µM [falling, full curve]"
CCOC(=O)c1cccc(NC(=O)C(C)N2C(=O)c3ccccc3C2=O)c1 (centres undefined),-32.1%,"6.51 µM [falling, full curve, poor fit]","0.00411 µM [rising, full curve, poor fit]"
COC(=O)c1c(NC(=O)C2CC=CCC2C(=O)O)sc2c1CCCCC2 (centres undefined),-11.9%,–,"0.58 µM [rising, single point]"
Cc1cc(C)c2c(c1)NC(C(=O)O)C1CC=CC21 (centres undefined),-0.525%,–,"8.2 µM [rising, partial curve]"
CC1=C(C(N)=O)C(c2ccccc2)n2nc(-c3cccs3)nc2N1 (centres undefined),10.7%,–,"0.0517 µM [rising, full curve, poor fit]"
Cc1ccc(NCc2ccccc2O)cc1,-30.1%,"20.6 µM [falling, single point]","20.6 µM [falling, partial curve]"
COc1ccc(C2(O)CCN(CCCCOc3ccccc3)CC2)cc1,3.98%,–,"0.366 µM [falling, full curve]"
O=c1c2cccc(Cl)c2nc2n1Cc1ccccc1-2,5.08%,–,"0.259 µM [rising, partial curve, poor fit]"
Cn1c(-c2ccc(F)cc2)cnc1SCC(=O)Nc1ccccc1,-25.6%,–,"16.4 µM [falling, single point]"
CCC(=O)Nc1ccc(NC(=O)c2ccco2)cc1,4.01%,"0.82 µM [falling, full curve, poor fit]","1.46 µM [falling, partial curve]"
CC(C)=CCC1=C(OCC(=O)O)C(=O)c2ccccc2C1=O,-38.7%,"18.4 µM [falling, single point]","18.4 µM [falling, single point]"
Cc1noc(N)c1C1(O)C(=O)N(C(C)C)c2ccccc21 (centres undefined),-39.2%,"0.146 µM [falling, full curve, poor fit]","0.259 µM [falling, full curve]"
O=C(c1ccc2ncsc2c1)N1CCN(c2nc3ccccc3s2)CC1,6.02%,–,"1.64 µM [rising, partial curve]"
O=C(Nc1ccccc1Br)C(=O)N1CCCC1,23.4%,–,"16.4 µM [rising, single point]"
Cc1ccc(S(=O)(=O)c2ccc([N+](=O)[O-])cn2)cc1,-71.7%,"4.61 µM [falling, full curve]","2.91 µM [falling, full curve]"
CSCC[C@H](NC(=O)c1ccc(Br)o1)c1nnc2ccccn12,12.5%,–,–
COc1cc2c(cc1OC)C(c1cccc(Br)c1)CC(=O)N2 (centres undefined),-18.3%,–,–
COc1cccc(-c2cc(C(=O)N3C(C)CCCC3C)no2)c1 (centres undefined),-4.34%,–,–
O=C(O)C1CCCN1c1ncccc1[N+](=O)[O-] (centres undefined),20.8%,"2.91 µM [falling, single point]","2.31 µM [falling, partial curve]"
CC1=CC2=NC(=O)/C(=C\c3ccc(-c4cccc(Cl)c4)o3)C(=N)N2O1,2.25%,–,"4.11 µM [rising, partial curve, poor fit]"

# Some values from above.
# COc1cc2c(cc1OC)C(c1cccc(Br)c1)CC(=O)N2 (centres undefined) | cell number change: -18.3%
# CCOC(=O)c1cccc(NC(=O)C(C)N2C(=O)c3ccccc3C2=O)c1 (centres undefined) | AC50 [2]: 0.00411 µM [rising, full curve, poor fit]
